Here are results for two substances from publication PMC6947699.

The experiment deals with T1, GST-fusion USP15, purified from BL21 (UniProt Q9Y4E8).
T1 sequence: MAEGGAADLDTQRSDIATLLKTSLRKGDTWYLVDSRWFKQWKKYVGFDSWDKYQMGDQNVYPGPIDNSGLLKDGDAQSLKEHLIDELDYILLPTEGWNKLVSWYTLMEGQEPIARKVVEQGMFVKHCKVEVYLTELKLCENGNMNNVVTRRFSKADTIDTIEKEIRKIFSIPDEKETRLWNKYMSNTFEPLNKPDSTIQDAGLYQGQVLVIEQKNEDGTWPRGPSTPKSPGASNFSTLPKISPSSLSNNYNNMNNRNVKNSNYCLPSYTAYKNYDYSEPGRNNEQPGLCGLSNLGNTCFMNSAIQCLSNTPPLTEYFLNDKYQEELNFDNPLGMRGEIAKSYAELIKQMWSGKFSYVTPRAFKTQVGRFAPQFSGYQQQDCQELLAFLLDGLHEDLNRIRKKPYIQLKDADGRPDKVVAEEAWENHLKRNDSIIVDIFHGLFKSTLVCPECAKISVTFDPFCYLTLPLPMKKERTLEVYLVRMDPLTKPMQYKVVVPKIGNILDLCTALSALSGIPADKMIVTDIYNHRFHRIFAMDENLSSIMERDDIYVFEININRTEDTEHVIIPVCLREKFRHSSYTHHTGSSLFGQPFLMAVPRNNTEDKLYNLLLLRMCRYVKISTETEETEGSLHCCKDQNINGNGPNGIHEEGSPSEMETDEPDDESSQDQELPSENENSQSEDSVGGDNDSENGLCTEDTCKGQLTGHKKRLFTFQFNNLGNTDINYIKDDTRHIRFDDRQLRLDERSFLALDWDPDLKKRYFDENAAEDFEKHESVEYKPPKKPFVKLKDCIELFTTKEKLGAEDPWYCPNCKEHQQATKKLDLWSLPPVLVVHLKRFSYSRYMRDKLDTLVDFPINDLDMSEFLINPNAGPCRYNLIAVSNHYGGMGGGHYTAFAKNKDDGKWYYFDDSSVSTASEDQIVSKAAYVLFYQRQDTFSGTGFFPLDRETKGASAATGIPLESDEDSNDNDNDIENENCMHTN
In words: co-IP; in vitro Co-IP with IL1R2 or icd-IL1R2 and USP15 protein truncations purified from BL21, Western blot; both purified. A general note: In western blotting, separated proteins are transferred to a membrane and probed.

Results are given in words; binding and its absence hold for the method and conditions named. Binding seen in cells or lysates may run through a third protein. Binding can be weak; no strength is given. Tags and fused reporters may be left off the sequences shown.

With “GST-fusion IL1R2 (full length), purified from BL21 (human) (receptor)”, the binding entry is listed as “binds”.

As to “GST-fusion IL1R2 intracellular domain (icd-IL1R2), purified from BL21 (human) (domain or fragment)”, the binding result is given as “binds”.
